± gives the standard deviation of the averaged measurements. The list shows a part of the results.
Compound: Nc1nc2c(ncn2[C@@H]2O[C@H](COP(=O)(O)OP(=O)(O)OP(=O)(O)O)[C@@H](O)[C@H]2O)c(=O)[nH]1 [guanosine triphosphate]
Assay: NP40-soluble protein abundance relative to vehicle (solubility fold change) (ratio); higher = more soluble protein in presence of GTP
Procedure, shortened: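 Across three independent experiments, values are fold changes against the detergent-processed vehicle for each replicate, based on vsn-normalised intensities. The samples were Jurkat crude lysate treated with eight concentrations (0.1 to 10 mM) for 10 min at room temperature and then 3 min at 37 °C. Lysate was solubilised with 0.8% NP40 and benzonase, ultracentrifuged, and the supernatant analysed by TMT-labelled LC-MS/MS.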

By UniProt entry, the sequences of proteins in these tests, tags left out. Where a name states a change or a piece, a line headed by the entry shows the natural chain unless it says otherwise.
UniProt P11142, whole entry, looked up: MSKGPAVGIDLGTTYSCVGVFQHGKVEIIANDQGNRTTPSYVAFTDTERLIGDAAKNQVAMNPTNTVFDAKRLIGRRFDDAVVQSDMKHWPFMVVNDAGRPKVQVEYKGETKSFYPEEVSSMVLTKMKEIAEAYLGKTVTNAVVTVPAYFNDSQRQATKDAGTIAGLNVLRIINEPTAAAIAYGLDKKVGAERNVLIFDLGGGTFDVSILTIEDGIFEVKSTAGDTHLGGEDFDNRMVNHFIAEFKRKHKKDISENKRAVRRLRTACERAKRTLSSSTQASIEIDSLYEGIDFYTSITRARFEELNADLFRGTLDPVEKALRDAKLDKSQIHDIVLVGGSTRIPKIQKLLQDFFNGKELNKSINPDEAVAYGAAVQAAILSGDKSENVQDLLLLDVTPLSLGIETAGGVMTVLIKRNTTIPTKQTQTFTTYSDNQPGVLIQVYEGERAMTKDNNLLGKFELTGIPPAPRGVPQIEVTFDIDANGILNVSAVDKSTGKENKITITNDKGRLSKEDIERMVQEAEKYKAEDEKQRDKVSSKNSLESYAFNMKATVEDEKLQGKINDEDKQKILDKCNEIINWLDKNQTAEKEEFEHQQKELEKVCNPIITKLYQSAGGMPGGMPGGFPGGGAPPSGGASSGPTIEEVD
UniProt Q9UM22: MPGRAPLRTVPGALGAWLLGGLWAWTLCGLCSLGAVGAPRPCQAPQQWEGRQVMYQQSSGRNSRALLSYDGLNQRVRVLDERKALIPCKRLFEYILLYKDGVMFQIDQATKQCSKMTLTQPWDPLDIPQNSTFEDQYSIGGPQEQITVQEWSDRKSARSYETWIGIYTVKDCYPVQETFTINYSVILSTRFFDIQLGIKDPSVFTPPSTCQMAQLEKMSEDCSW
UniProt P27707: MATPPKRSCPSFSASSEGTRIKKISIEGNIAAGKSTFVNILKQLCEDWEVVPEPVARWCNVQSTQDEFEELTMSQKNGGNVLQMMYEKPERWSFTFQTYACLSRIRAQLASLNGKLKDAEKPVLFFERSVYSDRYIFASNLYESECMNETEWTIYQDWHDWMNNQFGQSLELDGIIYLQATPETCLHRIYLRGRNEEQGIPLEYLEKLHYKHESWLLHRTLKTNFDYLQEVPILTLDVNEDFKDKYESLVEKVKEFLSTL
UniProt Q9GZV4: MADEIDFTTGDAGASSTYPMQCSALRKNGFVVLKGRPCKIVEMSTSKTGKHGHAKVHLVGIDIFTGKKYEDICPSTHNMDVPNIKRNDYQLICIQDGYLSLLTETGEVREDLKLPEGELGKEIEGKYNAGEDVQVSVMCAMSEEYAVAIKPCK
UniProt Q8TBF5: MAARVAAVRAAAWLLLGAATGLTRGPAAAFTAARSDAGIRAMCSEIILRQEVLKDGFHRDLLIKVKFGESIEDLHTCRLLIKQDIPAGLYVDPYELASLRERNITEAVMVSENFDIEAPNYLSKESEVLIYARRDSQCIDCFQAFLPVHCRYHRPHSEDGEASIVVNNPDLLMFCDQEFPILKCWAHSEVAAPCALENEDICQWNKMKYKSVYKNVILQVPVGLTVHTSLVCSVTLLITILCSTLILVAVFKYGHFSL
UniProt O76075: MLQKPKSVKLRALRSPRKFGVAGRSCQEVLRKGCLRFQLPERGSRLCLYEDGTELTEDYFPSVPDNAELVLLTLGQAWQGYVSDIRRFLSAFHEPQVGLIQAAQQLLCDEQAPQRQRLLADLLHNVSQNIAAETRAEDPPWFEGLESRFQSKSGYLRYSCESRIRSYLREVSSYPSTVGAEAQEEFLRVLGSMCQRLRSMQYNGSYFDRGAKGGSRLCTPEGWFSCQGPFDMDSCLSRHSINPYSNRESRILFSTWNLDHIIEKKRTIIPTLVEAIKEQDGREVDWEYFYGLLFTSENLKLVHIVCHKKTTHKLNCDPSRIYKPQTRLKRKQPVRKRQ
UniProt Q9NTJ5: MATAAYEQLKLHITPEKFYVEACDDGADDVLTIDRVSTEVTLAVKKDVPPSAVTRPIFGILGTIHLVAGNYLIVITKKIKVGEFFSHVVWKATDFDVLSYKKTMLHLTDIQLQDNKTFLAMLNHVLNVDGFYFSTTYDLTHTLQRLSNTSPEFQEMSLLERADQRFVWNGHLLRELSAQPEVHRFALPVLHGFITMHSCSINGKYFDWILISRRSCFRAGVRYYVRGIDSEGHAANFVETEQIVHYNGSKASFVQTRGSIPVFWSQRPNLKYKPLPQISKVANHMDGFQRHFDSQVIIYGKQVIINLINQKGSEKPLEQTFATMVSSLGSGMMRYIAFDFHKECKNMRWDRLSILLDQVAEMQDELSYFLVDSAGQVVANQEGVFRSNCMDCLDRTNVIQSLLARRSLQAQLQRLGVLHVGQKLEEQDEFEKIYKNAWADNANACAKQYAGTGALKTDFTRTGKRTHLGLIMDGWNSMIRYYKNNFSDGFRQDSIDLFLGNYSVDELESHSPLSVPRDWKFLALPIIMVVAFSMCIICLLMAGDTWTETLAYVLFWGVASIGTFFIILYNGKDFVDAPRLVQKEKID
UniProt P55196: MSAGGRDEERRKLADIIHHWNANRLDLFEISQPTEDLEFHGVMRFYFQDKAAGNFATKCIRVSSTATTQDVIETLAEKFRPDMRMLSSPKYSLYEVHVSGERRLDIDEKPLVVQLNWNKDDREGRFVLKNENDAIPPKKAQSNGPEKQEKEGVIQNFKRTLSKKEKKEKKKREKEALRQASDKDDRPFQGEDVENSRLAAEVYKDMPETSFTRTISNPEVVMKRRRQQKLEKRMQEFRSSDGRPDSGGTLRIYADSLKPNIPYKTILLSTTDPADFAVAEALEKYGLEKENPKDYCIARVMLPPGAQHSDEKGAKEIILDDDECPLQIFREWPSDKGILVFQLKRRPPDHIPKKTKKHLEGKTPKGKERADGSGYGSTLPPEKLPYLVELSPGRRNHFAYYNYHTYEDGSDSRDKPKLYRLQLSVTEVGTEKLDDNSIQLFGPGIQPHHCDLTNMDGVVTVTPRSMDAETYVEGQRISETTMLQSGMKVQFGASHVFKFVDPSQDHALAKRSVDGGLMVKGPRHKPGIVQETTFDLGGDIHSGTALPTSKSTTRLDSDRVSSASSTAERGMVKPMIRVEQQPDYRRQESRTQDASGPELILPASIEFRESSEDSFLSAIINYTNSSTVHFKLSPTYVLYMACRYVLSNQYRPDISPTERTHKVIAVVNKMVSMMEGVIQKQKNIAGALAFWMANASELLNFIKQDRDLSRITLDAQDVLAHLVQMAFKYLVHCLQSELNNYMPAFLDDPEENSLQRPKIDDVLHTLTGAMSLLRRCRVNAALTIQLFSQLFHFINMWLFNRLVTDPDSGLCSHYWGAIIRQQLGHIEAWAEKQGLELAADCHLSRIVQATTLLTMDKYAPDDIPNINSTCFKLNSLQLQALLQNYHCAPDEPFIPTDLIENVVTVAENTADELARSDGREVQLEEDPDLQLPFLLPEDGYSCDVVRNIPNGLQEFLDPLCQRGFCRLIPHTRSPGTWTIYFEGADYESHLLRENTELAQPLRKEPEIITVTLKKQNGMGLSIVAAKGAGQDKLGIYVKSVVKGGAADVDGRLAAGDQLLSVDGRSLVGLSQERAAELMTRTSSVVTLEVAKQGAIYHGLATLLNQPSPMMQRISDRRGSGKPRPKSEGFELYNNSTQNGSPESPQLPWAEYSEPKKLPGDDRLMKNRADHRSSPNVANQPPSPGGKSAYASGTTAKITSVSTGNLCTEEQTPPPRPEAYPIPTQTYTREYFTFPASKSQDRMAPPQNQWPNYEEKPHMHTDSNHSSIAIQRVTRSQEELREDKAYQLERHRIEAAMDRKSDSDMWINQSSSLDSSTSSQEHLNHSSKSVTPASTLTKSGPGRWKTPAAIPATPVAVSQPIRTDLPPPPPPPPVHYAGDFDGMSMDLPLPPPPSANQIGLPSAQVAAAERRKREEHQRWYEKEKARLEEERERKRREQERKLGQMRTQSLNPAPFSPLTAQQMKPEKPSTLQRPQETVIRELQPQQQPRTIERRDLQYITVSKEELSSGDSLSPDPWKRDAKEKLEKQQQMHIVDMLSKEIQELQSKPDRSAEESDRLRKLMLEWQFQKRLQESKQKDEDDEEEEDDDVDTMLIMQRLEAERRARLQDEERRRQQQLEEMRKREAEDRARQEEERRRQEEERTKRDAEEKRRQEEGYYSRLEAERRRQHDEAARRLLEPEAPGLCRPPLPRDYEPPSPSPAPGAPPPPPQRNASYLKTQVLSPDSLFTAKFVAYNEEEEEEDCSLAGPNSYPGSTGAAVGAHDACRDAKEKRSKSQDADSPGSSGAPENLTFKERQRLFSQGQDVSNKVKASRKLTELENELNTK
UniProt O15372, whole entry: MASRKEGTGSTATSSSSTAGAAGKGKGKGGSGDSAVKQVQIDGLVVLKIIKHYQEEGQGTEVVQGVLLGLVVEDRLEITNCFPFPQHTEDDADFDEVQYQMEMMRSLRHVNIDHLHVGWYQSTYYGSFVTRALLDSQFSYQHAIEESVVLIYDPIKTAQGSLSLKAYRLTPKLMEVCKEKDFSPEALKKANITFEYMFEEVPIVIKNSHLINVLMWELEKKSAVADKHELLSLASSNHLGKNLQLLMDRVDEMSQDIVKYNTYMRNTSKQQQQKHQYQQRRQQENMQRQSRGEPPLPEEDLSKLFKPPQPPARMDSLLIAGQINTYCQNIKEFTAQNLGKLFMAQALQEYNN
UniProt A6NKF1: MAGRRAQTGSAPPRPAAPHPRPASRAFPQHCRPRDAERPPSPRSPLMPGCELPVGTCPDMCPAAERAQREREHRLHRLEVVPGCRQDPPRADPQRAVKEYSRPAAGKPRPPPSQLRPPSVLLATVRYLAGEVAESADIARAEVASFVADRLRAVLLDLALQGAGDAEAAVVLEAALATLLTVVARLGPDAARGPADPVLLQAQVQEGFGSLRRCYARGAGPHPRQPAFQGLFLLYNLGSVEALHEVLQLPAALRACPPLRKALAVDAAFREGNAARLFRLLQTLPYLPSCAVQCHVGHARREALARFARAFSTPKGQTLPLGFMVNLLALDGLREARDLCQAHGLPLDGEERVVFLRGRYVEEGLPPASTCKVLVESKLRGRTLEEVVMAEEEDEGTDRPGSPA
UniProt A6NIH7: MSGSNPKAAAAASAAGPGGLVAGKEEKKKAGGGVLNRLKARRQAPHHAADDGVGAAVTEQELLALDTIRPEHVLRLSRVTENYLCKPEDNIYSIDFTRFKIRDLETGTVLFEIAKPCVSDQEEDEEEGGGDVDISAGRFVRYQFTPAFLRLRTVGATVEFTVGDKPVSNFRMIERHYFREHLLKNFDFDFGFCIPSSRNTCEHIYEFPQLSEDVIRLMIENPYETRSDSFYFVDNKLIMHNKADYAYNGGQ
UniProt P61916: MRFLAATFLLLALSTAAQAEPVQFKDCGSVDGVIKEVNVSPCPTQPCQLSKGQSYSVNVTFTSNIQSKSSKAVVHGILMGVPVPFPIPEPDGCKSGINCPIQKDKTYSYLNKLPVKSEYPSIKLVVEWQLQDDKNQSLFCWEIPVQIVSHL
UniProt O75817: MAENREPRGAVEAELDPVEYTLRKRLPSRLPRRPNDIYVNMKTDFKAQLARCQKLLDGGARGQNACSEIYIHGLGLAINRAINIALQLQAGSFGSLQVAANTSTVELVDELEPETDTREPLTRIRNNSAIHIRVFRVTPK
UniProt Q9BZK7: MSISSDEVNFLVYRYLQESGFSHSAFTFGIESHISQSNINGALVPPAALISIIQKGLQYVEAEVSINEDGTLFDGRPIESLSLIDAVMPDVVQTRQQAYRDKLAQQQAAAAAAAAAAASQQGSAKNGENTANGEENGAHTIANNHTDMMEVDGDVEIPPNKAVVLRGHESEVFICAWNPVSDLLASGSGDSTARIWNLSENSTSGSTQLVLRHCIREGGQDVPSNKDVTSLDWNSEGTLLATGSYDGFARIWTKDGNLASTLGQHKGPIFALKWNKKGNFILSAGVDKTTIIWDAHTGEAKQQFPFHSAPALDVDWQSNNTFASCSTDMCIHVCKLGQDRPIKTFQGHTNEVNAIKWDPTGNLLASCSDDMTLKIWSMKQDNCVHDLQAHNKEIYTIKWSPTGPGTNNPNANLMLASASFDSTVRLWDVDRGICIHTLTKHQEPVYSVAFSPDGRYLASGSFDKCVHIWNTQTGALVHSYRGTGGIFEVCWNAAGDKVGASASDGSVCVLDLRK
UniProt Q15019: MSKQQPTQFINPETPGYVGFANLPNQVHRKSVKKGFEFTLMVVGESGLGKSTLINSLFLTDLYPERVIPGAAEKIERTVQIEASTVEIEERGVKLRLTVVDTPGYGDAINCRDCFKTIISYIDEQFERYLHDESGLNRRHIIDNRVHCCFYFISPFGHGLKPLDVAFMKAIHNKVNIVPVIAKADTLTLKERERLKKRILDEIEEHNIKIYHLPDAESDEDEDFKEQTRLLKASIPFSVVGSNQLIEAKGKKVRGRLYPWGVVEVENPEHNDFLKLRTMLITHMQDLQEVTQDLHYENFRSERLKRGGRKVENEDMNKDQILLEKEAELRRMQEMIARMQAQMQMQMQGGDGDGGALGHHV

Target | NP40-soluble protein abundance (concentration: 0.1mM) | NP40-soluble protein abundance (concentration: 0.5mM) | NP40-soluble protein abundance (concentration: 1mM) | NP40-soluble protein abundance (concentration: 2mM) | NP40-soluble protein abundance (concentration: 4mM) | NP40-soluble protein abundance (concentration: 6mM) | NP40-soluble protein abundance (concentration: 8mM) | NP40-soluble protein abundance (concentration: 10mM)
A9X3U0 and related entries (UniProt Q96GF1) | 0.958 ± 0.13 | 0.957 ± 0.1 | 0.967 ± 0.091 | 0.951 ± 0.087 | 1.02 ± 0.083 | 0.974 ± 0.037 | 0.973 ± 0.022 | 1.03 ± 0.054
A8K7Q2 and related entries (UniProt P11142) | 0.97 ± 0.091 | 0.982 ± 0.086 | 0.994 ± 0.084 | 0.931 ± 0.092 | 0.957 ± 0.098 | 0.956 ± 0.078 | 0.986 ± 0.11 | 0.949 ± 0.11
B4E1G1 and related entries (UniProt Q9BUN8) | 1.07 ± 0.037 | 1.02 ± 0.016 | 1.01 ± 0.085 | 1.025 ± 0.0097 | 1.04 ± 0.039 | 0.964 ± 0.035 | 1.06 ± 0.028 | 1.01 ± 0.044
D6RIH7 and related entries (UniProt Q9UM22) | 0.918 ± 0.11 | 0.931 ± 0.14 | 0.91 ± 0.12 | 0.896 ± 0.13 | 0.902 ± 0.12 | 0.908 ± 0.13 | 0.88 ± 0.085 | 0.889 ± 0.11
D6R9C6 and related entries (UniProt P27707) | 0.995 ± 0.029 | 0.977 ± 0.014 | 0.953 ± 0.037 | 0.88 ± 0.02 | 0.875 ± 0.043 | 0.885 ± 0.041 | 0.883 ± 0.078 | 0.828 ± 0.076
D6RAN8 and related entries (UniProt Q9P0M9) | 1.09 ± 0.38 | 1.2 ± 0.5 | 1.53 ± 0.78 | 1.81 ± 0.82 | 1.91 ± 0.83 | 1.72 ± 0.79 | 1.64 ± 0.79 | 1.58 ± 0.84
C9J4W5 and related entries (UniProt Q9GZV4) | 1.03 ± 0.21 | 0.864 ± 0.12 | 0.954 ± 0.14 | 0.922 ± 0.18 | 0.875 ± 0.21 | 0.853 ± 0.17 | 0.868 ± 0.081 | 0.885 ± 0.12
C9JF71 and related entries (UniProt Q8TBF5) | 1.02 ± 0.13 | 0.945 ± 0.097 | 0.969 ± 0.096 | 1 ± 0.16 | 0.934 ± 0.082 | 1.04 ± 0.17 | 1.03 ± 0.24 | 1.02 ± 0.17
B4DZS0 and related entries (UniProt O76075) | 1.05 ± 0.076 | 1.07 ± 0.061 | 1.01 ± 0.098 | 0.991 ± 0.1 | 0.948 ± 0.067 | 0.921 ± 0.096 | 0.938 ± 0.071 | 0.912 ± 0.13
E5RFJ1 and related entries (UniProt Q96MF7) | 1.01 ± 0.059 | 1.01 ± 0.056 | 1.05 ± 0.015 | 1.02 ± 0.1 | 0.98 ± 0.093 | 1 ± 0.054 | 1.05 ± 0.04 | 1.05 ± 0.077
C9JV50 and related entries (UniProt Q9NTJ5) | 1.03 ± 0.037 | 1.03 ± 0.044 | 0.964 ± 0.032 | 0.972 ± 0.067 | 0.96 ± 0.036 | 0.953 ± 0.045 | 0.949 ± 0.012 | 0.91 ± 0.032
A8MQ02 and related entries (UniProt P55196) | 1.15 ± 0.16 | 0.987 ± 0.079 | 1 ± 0.038 | 1.05 ± 0.14 | 1.18 ± 0.34 | 1.18 ± 0.21 | 1.16 ± 0.14 | 1.13 ± 0.078
B3KS98 and related entries (UniProt O15372) | 0.992 ± 0.07 | 1.01 ± 0.088 | 1.03 ± 0.075 | 1.08 ± 0.15 | 1.27 ± 0.25 | 1.42 ± 0.28 | 1.6 ± 0.34 | 1.8 ± 0.36
C9JRZ6 and related entries (UniProt Q9NX63) | 0.919 ± 0.081 | 0.953 ± 0.055 | 1.07 ± 0.057 | 1.06 ± 0.02 | 1.12 ± 0.035 | 1.13 ± 0.069 | 1.16 ± 0.061 | 1.15 ± 0.12
C9J931 and related entries (UniProt Q15382) | 1.06 ± 0.049 | 0.983 ± 0.07 | 0.955 ± 0.063 | 0.92 ± 0.065 | 0.91 ± 0.077 | 0.912 ± 0.092 | 0.915 ± 0.059 | 0.865 ± 0.07
B4DJV2 and related entries (UniProt O75390) | 0.981 ± 0.017 | 0.975 ± 0.015 | 0.911 ± 0.027 | 0.881 ± 0.0095 | 0.886 ± 0.019 | 0.863 ± 0.015 | 0.845 ± 0.036 | 0.827 ± 0.045
UniProt A6NKF1 and related entries | 0.951 ± 0.018 | 0.878 ± 0.016 | 0.832 ± 0.058 | 0.841 ± 0.047 | 0.881 ± 0.078 | 0.882 ± 0.053 | 0.863 ± 0.046 | 0.924 ± 0.043
UNC119B (UniProt A6NIH7) | 1.02 ± 0.042 | 1.02 ± 0.072 | 0.955 ± 0.1 | 0.932 ± 0.1 | 0.909 ± 0.086 | 0.913 ± 0.096 | 0.93 ± 0.086 | 0.91 ± 0.11
A8MT40 and related entries (UniProt Q8NCN5) | 1.03 ± 0.061 | 1.08 ± 0.075 | 0.931 ± 0.023 | 0.975 ± 0.12 | 0.901 ± 0.058 | 0.915 ± 0.082 | 0.848 ± 0.04 | 0.891 ± 0.067
E7EMS2 and related entries (UniProt P61916) | 0.885 ± 0.028 | 0.89 ± 0.059 | 0.945 ± 0.045 | 0.871 ± 0.076 | 0.843 ± 0.078 | 0.896 ± 0.1 | 0.87 ± 0.097 | 0.886 ± 0.05
C9JYM0 and related entries (UniProt O75817) | 0.958 ± 0.11 | 0.989 ± 0.077 | 1.06 ± 0.046 | 1.06 ± 0.092 | 1.15 ± 0.092 | 1.17 ± 0.077 | 1.17 ± 0.037 | 1.21 ± 0.12
C9JLJ1 and related entries (UniProt Q9BZK7) | 1.03 ± 0.051 | 1.07 ± 0.081 | 1.01 ± 0.061 | 1.03 ± 0.095 | 1.07 ± 0.13 | 1.05 ± 0.094 | 1.02 ± 0.083 | 1.02 ± 0.074
B5MCX3 and related entries (UniProt Q15019) | 1.03 ± 0.034 | 1 ± 0.036 | 0.98 ± 0.025 | 0.935 ± 0.035 | 0.96 ± 0.028 | 0.925 ± 0.024 | 0.932 ± 0.03 | 0.8839 ± 0.0077
B1AMS2 and related entries (UniProt Q14141) | 1.03 ± 0.053 | 0.998 ± 0.011 | 0.968 ± 0.062 | 0.9155 ± 0.0055 | 0.941 ± 0.054 | 0.921 ± 0.016 | 0.941 ± 0.1 | 0.857 ± 0.013
C5orf51 (UniProt A6NDU8) | 0.989 ± 0.035 | 0.968 ± 0.074 | 0.98 ± 0.11 | 0.972 ± 0.052 | 0.989 ± 0.059 | 0.887 ± 0.058 | 0.9228 ± 0.0087 | 0.984 ± 0.033

Reformatted as tab-separated lines: part of the list above.
Target	NP40-soluble protein abundance (concentration: 0.1mM)	NP40-soluble protein abundance (concentration: 0.5mM)	NP40-soluble protein abundance (concentration: 1mM)	NP40-soluble protein abundance (concentration: 2mM)	NP40-soluble protein abundance (concentration: 4mM)	NP40-soluble protein abundance (concentration: 6mM)	NP40-soluble protein abundance (concentration: 8mM)	NP40-soluble protein abundance (concentration: 10mM)
C9JYM0 and related entries (UniProt O75817)	0.958 ± 0.11	0.989 ± 0.077	1.06 ± 0.046	1.06 ± 0.092	1.15 ± 0.092	1.17 ± 0.077	1.17 ± 0.037	1.21 ± 0.12
C9JLJ1 and related entries (UniProt Q9BZK7)	1.03 ± 0.051	1.07 ± 0.081	1.01 ± 0.061	1.03 ± 0.095	1.07 ± 0.13	1.05 ± 0.094	1.02 ± 0.083	1.02 ± 0.074
B5MCX3 and related entries (UniProt Q15019)	1.03 ± 0.034	1 ± 0.036	0.98 ± 0.025	0.935 ± 0.035	0.96 ± 0.028	0.925 ± 0.024	0.932 ± 0.03	0.8839 ± 0.0077
B1AMS2 and related entries (UniProt Q14141)	1.03 ± 0.053	0.998 ± 0.011	0.968 ± 0.062	0.9155 ± 0.0055	0.941 ± 0.054	0.921 ± 0.016	0.941 ± 0.1	0.857 ± 0.013
C5orf51 (UniProt A6NDU8)	0.989 ± 0.035	0.968 ± 0.074	0.98 ± 0.11	0.972 ± 0.052	0.989 ± 0.059	0.887 ± 0.058	0.9228 ± 0.0087	0.984 ± 0.033

From the supplement of paper PMC6411743
